Test results reported in the supplement of paper PMC12823440, “Inhibitors supercharge kinase turnover through native proteolytic circuits” (Nature, 2025).
Counter-ions that a name gives are not always drawn. Some of the results follow. Hit calls seldom repeat between salt and free forms of one compound.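 Kinases were expressed as nanoluciferase fusions in K562 cells and luminescence was read every 4 h between 2 and 18 h as percent of control, DMSO set to 100% and a positive control to 0%. A time point counts as decreased when the signal drops significantly (2 sigma). The hit call is the authors' own, does not follow from the count of time points alone, and its rule is not shown.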

Chains of the proteins cited; added tags and fusions are not shown. Lines headed by an entry give the natural chain unless they say otherwise; changes in a name come on top.
UniProt Q9UM73: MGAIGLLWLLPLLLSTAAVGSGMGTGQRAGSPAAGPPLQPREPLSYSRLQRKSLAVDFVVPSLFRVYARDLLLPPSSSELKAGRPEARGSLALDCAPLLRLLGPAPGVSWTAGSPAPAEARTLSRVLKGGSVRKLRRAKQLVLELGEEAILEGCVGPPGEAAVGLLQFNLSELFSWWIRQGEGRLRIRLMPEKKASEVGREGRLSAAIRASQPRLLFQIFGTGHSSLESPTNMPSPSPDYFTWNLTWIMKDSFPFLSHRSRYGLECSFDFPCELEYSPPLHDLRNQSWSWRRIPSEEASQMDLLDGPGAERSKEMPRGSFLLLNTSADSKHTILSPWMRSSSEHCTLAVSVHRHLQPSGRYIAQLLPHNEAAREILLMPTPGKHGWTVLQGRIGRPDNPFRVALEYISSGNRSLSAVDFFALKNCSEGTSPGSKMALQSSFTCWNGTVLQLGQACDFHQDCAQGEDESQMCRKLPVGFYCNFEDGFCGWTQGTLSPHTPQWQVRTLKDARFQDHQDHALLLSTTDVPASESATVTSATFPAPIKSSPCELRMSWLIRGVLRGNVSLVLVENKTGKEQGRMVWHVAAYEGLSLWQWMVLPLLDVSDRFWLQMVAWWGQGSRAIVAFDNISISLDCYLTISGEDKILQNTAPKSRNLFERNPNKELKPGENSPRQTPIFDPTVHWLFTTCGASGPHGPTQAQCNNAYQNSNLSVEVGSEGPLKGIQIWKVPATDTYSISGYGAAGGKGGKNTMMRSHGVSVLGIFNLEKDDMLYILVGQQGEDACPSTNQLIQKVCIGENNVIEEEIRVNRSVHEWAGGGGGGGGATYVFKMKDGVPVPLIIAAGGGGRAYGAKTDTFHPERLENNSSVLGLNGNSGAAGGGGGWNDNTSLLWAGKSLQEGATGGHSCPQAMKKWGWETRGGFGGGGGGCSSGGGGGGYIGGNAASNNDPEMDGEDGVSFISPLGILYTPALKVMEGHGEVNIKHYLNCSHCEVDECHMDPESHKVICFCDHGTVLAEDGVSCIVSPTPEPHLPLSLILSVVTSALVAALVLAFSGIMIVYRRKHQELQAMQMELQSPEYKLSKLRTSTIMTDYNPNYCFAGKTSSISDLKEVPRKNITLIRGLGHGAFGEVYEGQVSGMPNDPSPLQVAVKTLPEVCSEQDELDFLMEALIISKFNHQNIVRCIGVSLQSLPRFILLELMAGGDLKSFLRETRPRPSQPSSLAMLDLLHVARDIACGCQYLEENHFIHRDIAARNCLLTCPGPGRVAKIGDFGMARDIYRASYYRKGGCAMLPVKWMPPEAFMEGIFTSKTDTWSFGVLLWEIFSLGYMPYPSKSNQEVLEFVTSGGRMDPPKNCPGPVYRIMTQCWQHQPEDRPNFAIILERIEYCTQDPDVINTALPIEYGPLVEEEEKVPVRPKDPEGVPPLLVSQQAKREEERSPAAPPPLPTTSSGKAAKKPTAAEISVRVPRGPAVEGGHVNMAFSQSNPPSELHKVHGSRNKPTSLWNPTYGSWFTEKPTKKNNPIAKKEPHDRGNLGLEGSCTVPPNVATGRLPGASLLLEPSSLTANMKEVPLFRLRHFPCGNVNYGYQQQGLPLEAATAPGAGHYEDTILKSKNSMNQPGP
UniProt P10398: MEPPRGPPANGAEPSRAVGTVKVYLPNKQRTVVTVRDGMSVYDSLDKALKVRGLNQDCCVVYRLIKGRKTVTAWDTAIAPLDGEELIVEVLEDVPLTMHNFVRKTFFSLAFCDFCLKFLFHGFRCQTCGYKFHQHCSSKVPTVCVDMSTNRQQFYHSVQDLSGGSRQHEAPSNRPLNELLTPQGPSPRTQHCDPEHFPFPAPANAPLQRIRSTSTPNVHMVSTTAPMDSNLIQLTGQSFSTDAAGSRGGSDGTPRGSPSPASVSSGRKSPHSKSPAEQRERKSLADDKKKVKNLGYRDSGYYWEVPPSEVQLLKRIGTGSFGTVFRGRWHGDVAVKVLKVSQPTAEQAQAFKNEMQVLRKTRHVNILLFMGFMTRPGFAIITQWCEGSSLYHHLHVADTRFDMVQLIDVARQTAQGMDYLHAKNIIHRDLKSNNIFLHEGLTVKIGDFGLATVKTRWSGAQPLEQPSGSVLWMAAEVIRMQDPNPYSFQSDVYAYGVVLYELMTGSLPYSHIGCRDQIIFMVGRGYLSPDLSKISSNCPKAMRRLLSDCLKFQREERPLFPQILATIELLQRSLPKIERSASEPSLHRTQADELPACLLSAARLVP
UniProt O14965: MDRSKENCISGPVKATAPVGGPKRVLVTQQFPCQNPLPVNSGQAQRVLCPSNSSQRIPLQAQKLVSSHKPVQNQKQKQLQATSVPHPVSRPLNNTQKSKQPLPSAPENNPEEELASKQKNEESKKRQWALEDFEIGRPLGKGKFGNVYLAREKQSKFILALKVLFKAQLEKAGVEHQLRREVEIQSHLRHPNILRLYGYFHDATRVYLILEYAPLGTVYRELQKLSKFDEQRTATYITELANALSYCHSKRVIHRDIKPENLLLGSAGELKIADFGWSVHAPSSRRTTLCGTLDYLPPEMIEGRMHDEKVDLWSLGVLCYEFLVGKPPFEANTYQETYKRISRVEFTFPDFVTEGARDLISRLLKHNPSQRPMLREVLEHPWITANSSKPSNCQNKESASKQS
UniProt Q96GD4, whole entry: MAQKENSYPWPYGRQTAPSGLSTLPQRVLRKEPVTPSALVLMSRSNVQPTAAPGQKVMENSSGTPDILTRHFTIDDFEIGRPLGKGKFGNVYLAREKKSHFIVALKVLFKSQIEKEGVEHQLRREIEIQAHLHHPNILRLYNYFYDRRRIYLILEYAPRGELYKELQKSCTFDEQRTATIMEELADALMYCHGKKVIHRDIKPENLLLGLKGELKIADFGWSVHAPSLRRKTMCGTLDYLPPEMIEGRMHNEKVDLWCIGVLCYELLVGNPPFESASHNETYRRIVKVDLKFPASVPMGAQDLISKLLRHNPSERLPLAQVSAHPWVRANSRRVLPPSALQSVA
UniProt Q9UQB9: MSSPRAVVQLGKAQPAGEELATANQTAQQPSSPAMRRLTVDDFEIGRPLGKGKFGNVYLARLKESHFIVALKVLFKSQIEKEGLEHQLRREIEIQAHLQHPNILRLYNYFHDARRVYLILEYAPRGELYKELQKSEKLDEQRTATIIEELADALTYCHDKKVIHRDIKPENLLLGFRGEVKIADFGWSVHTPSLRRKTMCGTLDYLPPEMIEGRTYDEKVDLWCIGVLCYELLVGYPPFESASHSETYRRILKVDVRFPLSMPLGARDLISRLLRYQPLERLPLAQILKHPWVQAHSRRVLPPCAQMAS
UniProt P51451: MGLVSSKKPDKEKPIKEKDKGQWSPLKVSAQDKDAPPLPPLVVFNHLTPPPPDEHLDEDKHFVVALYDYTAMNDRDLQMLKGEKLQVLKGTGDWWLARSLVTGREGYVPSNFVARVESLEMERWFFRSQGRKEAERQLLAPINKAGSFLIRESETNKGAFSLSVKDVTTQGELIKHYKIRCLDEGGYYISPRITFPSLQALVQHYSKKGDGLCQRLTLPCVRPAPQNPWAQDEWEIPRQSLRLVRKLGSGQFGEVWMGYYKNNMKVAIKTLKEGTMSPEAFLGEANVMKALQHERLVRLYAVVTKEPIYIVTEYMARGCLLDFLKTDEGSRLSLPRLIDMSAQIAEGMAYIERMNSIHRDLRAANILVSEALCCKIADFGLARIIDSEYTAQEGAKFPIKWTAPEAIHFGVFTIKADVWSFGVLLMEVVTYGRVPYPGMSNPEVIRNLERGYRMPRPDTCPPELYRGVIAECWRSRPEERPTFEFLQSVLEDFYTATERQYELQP
UniProt P51813: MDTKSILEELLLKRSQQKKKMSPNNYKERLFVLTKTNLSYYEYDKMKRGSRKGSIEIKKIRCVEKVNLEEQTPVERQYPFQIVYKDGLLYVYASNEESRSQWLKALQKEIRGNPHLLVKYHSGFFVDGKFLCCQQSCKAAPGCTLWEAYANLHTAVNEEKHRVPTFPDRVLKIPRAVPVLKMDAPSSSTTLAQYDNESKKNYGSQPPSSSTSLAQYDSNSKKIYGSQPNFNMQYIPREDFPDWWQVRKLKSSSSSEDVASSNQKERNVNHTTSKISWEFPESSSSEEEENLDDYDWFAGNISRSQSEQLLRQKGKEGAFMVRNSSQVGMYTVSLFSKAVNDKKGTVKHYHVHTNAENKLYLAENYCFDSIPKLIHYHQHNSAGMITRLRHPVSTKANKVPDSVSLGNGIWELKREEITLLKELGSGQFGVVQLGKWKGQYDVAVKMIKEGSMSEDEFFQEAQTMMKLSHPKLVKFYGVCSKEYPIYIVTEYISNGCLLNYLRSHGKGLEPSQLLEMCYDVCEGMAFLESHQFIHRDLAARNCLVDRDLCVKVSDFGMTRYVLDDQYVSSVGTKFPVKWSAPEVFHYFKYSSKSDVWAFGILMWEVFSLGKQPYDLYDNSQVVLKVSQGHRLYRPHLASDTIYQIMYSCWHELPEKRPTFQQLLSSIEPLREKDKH
UniProt P15056, whole entry, looked up: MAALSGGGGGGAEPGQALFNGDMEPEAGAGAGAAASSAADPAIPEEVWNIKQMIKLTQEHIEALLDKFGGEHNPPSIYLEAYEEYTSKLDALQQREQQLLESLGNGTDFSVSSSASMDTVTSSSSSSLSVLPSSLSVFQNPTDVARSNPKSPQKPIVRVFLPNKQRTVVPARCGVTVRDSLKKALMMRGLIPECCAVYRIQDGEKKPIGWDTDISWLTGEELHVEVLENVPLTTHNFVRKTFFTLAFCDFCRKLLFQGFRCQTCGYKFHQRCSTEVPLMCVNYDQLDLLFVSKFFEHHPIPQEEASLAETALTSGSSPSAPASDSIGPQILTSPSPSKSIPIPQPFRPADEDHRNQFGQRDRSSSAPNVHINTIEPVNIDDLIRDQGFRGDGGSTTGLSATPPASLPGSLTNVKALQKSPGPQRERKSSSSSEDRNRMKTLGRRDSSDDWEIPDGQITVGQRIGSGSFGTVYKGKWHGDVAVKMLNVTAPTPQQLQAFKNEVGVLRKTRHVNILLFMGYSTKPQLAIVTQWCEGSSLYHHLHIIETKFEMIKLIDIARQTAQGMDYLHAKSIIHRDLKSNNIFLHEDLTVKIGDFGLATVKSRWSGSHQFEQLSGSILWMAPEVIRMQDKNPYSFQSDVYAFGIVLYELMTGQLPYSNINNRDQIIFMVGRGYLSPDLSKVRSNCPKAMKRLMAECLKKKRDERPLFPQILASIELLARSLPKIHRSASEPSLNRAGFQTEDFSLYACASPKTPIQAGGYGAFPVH
UniProt Q06187: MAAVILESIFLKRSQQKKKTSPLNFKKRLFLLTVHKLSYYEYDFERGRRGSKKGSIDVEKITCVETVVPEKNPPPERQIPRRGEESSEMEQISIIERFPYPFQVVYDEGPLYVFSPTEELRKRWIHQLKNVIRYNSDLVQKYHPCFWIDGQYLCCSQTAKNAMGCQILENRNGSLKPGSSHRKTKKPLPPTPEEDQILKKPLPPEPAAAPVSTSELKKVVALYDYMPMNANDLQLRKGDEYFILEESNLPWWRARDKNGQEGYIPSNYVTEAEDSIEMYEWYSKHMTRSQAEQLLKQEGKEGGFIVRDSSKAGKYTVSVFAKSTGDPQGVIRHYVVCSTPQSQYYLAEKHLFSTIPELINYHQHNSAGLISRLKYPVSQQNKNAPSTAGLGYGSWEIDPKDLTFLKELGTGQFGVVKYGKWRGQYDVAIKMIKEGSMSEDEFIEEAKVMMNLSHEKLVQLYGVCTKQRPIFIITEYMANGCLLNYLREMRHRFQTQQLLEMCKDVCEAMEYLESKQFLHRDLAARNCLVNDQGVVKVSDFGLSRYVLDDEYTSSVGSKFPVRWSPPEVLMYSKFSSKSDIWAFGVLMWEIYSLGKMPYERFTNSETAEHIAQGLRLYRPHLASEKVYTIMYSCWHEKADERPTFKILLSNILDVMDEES

Legend:
Assay in all cases: number of time points (of 5) at which kinase-Nluc abundance scored as decreased, DMSO-normalised (count); higher = more persistent destabilization
Settings in all cases: K562; 2-18 h
ALK = ALK (UniProt Q9UM73)
ARAF = ARAF (UniProt P10398)
AURKA = AURKA (UniProt O14965)
AURKB = AURKB (UniProt Q96GD4)
AURKC = AURKC (UniProt Q9UQB9)
BLK = BLK (UniProt P51451)
BMX = BMX (UniProt P51813)
BRAF = BRAF (UniProt P15056)
BRAF_V600E = test system: BRAF_V600E
BTK = BTK (UniProt Q06187)

Measured: number of time points

CCS(=O)(=O)c1ccc(Oc2cc(O[C@@H](C)CO)cc(C(=O)Nc3ccn(C)n3)c2)cn1 (10 µM)
0: all assays above

COC(=O)c1cc2c(OC(C)C)cc(OC(C)C)cc2[nH]1 (2.5 µM)
0: all assays above

COc1cccc2cc(-c3nc([C@H]4CC[C@H](C(=O)O)CC4)n4ncnc(N)c34)[nH]c12 (2.5 µM)
4: AURKA | BRAF_V600E
2: ALK | BRAF
3: BLK | BMX
0: all other assays above

Oc1ccc2ccccc2c1SSc1c(O)ccc2ccccc12 (10 µM)
0: all assays above

C=CCN(/C=C1/C(=O)O[C@H](COC)[C@@]2(C)C1=C(O)C(=O)C1=C2[C@H](OC(C)=O)C[C@]2(C)C(=O)CC[C@@H]12)CC=C [Sonolisib] (2.5 µM)
1: BLK | BRAF | BRAF_V600E
3: AURKA
0: all other assays above

C[C@H]1CNC(=O)c2cnn3ccc(nc23)N[C@H](C)c2cc(F)ccc2O1 [Repotrectinib] (2.5 µM)
2: BRAF_V600E
1: AURKA | BLK | BMX | BRAF
0: all other assays above

Arranged by molar mass (ascending): part of the list above.
C[C@H]1CNC(=O)c2cnn3ccc(nc23)N[C@H](C)c2cc(F)ccc2O1 [Repotrectinib] (2.5 µM)
2: BRAF_V600E
1: AURKA | BLK | BMX | BRAF
0: all other assays above

COc1cccc2cc(-c3nc([C@H]4CC[C@H](C(=O)O)CC4)n4ncnc(N)c34)[nH]c12 (2.5 µM)
4: AURKA | BRAF_V600E
2: ALK | BRAF
3: BLK | BMX
0: all other assays above

C=CCN(/C=C1/C(=O)O[C@H](COC)[C@@]2(C)C1=C(O)C(=O)C1=C2[C@H](OC(C)=O)C[C@]2(C)C(=O)CC[C@@H]12)CC=C [Sonolisib] (2.5 µM)
1: BLK | BRAF | BRAF_V600E
3: AURKA
0: all other assays above

(further entries)

C1=N/C2=N/c3ccc(OCCN4CCCC4)c(c3)COC/C=C/COCc3cccc(c3)C(=C1)N2 [Pacritinib] (2.5 µM)
4: BMX
0: all other assays above

O=S(=O)(N=Cc1c(O)ccc2ccccc12)c1cccs1 (10 µM)
0: all assays above

CNS(=O)(=O)Nc1nccc(Cc2c(C)c3ccc(Oc4ncccn4)cc3oc2=O)c1F (10 µM)
1: ALK | AURKA | BRAF_V600E
0: all other assays above

COc1cc(-c2cc(-c3cccc(O)c3)cnc2N)cc(OC)c1OC (2.5 µM)
1: ALK | BMX | BRAF_V600E
0: all other assays above

Cc1occ2c1C(=O)c1c(O)ccc(O)c1C2 (2.5 µM)
0: all assays above

C[C@@H](N)COc1ccc(-c2cnc3ccc(N[C@H](C)c4cccc(F)c4)nn23)cc1 [Taletrectinib] (2.5 µM)
0: all assays above

Cc1c(C(=O)Nc2ccc(Oc3ccnc4cc(OCC(C)(C)O)ccc34)c(F)c2)c(=O)n(-c2ccccc2)n1C [Ningetinib Tosylate] (10 µM)
3: AURKA | BMX | BRAF
1: ALK | AURKB | BRAF_V600E
0: all other assays above

Cc1cc(Nc2ncc(Cl)c(Nc3ccccc3S(=O)(=O)C(C)C)n2)c(OC(C)C)cc1C1CCN(CC(=O)NCCNc2cccc3c2C(=O)N(C2CCC(=O)NC2=O)C3=O)CC1 (stereo not given) (10 µM)
4: ALK
0: all other assays above

O=C(N/N=C/c1ccc([N+](=O)[O-])o1)c1ccc(O)cc1 [Nifuroxazide] (10 µM)
1: ALK | AURKA | BMX | BRAF
0: all other assays above

O=C(Nc1ncc(SCCN2CCCC2)s1)[C@]1(c2ccc(S(=O)(=O)C3CC3)cc2)C[C@H]1C1CCCCC1 [Globalagliatin] (2.5 µM)
1: ARAF
0: all other assays above

O=c1[nH]nc(Sc2ncc([N+](=O)[O-])s2)n1-c1ccc2c(c1)OCCO2 (2.5 µM)
0: all assays above

CC[C@H](C)[C@H](NC(=O)[C@H](CCCCN)NC(=O)[C@H](CC(C)C)NC(=O)[C@@H]1CCCN1C(=O)[C@H](CCC(=O)O)NC(=O)[C@H](Cc1ccc(O)cc1)NC(=O)[C@@H](NC(=O)[C@H](CO)NC(=O)CNC(=O)[C@H](CO)NC(=O)[C@H](CCCN=C(N)N)NC(=O)[C@H](CCCCN)NC(=O)[C@@H](NC(=O)[C@@H](N)CCCN=C(N)N)[C@@H](C)O)C(C)C)C(=O)O [Malantide] (10 µM)
0: all assays above

CCCCNc1ncc2c(-c3ccc(CN4CCN(C)CC4)cc3)cn([C@H]3CC[C@H](O)CC3)c2n1 [UNC2025 (hydrochloride)] (2.5 µM)
2: BRAF_V600E
1: ALK | BMX
0: all other assays above

C[C@H](Nc1ccc2c(c1)OCCn1cc(N3C(=O)OC[C@H]3C(F)F)nc1-2)C(N)=O (10 µM)
0: all assays above

COc1cc(/C=C/c2ccc(NC(=O)/C=C/c3cc(OC)c(OC)c(OC)c3)cc2)cc(OC)c1 (2.5 µM)
0: all assays above

CNS(=O)(=O)C[C@H]1CC[C@H](N(C)c2[nH]cnc3nccc2-3)CC1 [Oclacitinib (maleate)] (10 µM)
0: all assays above

CC(C)(O)c1cc(Nc2cc(Oc3cn(C4CC4)nc3C3CCOCC3)ccn2)ccn1 (10 µM)
0: all assays above

CC(C)=C/C=C1\O[C@@H]2CC(C)=CC(=O)[C@@H]2[C@]1(C)O [Bisabolangelone] (10 µM)
0: all assays above

CCn1c2ccccc2c2cc(Nc3ccnc(NCCCN4CCOCC4)n3)ccc21 (2.5 µM)
3: BLK
0: all other assays above

Cc1cccc(Cn2nc(C)c3c(NC(=O)c4csc5c(N)ncnc45)cccc32)n1 (10 µM)
0: all assays above

O=C(c1ccc(NS(=O)(=O)c2cccc3cccnc23)cc1)N1CCN(CC2CC2)CC1 [Mitapivat] (10 µM)
0: all assays above

Cc1ccc(-c2csc(Cn3nc(CC4OCCCO4)c4ccccc4c3=O)n2)cc1 (10 µM)
0: all assays above

CN1CCC(c2ccccc2CC(C)(C)Nc2nc(N3CCOCC3)nc(-n3c(S(C)(=O)=O)nc4ccccc43)n2)CC1 (10 µM)
0: all assays above

Cc1cc([N+](=O)[O-])c(NS(=O)(=O)c2cccc(C(=O)O)c2)cc1-c1cccnc1 [Alofanib] (10 µM)
0: all assays above

O=c1ccc2cc(O)c(O)cc2o1 [Esculetin] (10 µM)
0: all assays above

C=CC(=O)Nc1cccc(Oc2nc(Nc3ccc(N4CCN(C)CC4)cc3)ncc2Cl)c1 (2.5 µM)
0: all assays above
